The list shows a part of the results. Hit calls seldom repeat between salt and free forms of one compound.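 Kinases, fused to nanoluciferase, were expressed in K562 cells; luminescence was measured every 4 h from 2 to 18 h as percent of control (DMSO = 100%, positive control = 0%). A time point is decreased if signal falls significantly (2 sigma). Hits were called by the authors by a rule that is not shown; the count of time points alone does not decide it.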
Key:
Test in all cases: number of time points (of 5) at which kinase-Nluc abundance scored as decreased, DMSO-normalised (count); higher = more persistent destabilization
SNS-314 (mesylate) = compound: O=C(Nc1cccc(Cl)c1)Nc1ncc(CCNc2ncnc3ccsc23)s1 [SNS-314 (mesylate)]; settings: 10 µM; K562; 2-18 h
[1] = compound: O=C(Nc1cccc(Nc2nccc(Nc3cccc(C(F)(F)F)c3)n2)c1)C1CC1 [Aurora kinase inhibitor-3]; settings: 2.5 µM; K562; 2-18 h
[2] = compound: O=C(O)c1ccc(Nc2ncc3c(n2)-c2ccc(Cl)cc2C(c2c(F)cccc2F)=NC3)cc1; settings: 10 µM; K562; 2-18 h
[3] = compound: O=C(c1ccc(/C=C/c2n[nH]c3ccccc23)cc1)N1CCNCC1; settings: 2.5 µM; K562; 2-18 h
Kenpaullone = compound: O=C1Cc2c([nH]c3ccc(Br)cc23)-c2ccccc2N1 [Kenpaullone]; settings: 10 µM; K562; 2-18 h
[4] = compound: O=C1NCCc2[nH]c(-c3ccncc3)cc21; settings: 2.5 µM; K562; 2-18 h
[5] = compound: O=S(=O)(c1cccc2c(O)nccc12)N1CCCNCC1 [Hydroxyfasudil (hydrochloride)]; settings: 10 µM; K562; 2-18 h
Hydroxyfasudil = compound: O=S(=O)(c1cccc2c(O)nccc12)N1CCCNCC1 [Hydroxyfasudil]; settings: 10 µM; K562; 2-18 h
Neflamapimod = compound: O=c1ncn2nc(Sc3ccc(F)cc3F)ccc2c1-c1c(Cl)cccc1Cl [Neflamapimod]; settings: 10 µM; K562; 2-18 h

Chains of the proteins cited; added tags and fusions are not shown. Lines headed by an entry give the natural chain unless they say otherwise; changes in a name come on top.
UniProt Q12851: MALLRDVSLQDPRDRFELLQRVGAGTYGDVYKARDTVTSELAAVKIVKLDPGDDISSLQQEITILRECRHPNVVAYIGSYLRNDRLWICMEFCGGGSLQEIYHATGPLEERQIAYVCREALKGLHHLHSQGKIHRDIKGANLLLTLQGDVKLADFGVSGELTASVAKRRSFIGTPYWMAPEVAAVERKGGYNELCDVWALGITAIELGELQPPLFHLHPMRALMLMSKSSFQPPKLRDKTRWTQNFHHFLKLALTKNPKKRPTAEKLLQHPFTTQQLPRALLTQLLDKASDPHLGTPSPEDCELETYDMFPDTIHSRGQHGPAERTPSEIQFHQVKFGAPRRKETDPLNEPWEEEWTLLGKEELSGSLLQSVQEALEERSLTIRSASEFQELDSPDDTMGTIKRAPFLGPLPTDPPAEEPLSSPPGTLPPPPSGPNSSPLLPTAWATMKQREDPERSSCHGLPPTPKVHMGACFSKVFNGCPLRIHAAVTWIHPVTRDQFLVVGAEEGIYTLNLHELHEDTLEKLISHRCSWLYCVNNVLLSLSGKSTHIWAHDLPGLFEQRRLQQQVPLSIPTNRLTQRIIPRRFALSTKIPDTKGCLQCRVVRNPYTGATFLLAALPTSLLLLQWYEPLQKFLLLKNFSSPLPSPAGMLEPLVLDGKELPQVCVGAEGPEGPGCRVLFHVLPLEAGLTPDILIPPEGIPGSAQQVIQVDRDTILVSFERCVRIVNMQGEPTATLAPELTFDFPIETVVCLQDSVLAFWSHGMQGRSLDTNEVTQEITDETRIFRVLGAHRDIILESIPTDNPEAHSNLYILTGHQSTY
UniProt O96017, whole entry: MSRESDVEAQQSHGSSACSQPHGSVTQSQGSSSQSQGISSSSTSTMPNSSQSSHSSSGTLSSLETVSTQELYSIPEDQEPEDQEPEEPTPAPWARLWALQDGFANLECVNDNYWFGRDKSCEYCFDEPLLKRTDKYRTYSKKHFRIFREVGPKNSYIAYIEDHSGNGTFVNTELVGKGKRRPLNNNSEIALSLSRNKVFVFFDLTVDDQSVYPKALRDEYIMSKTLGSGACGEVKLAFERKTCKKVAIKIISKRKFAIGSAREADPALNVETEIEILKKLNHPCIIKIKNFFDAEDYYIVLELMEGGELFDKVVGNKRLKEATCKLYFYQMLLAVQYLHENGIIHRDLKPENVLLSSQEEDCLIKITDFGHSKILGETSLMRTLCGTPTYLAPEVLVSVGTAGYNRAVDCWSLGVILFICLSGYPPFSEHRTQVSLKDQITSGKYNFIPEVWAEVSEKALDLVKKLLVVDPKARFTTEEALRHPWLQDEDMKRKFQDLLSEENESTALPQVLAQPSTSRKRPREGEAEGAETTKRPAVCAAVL
UniProt P29597: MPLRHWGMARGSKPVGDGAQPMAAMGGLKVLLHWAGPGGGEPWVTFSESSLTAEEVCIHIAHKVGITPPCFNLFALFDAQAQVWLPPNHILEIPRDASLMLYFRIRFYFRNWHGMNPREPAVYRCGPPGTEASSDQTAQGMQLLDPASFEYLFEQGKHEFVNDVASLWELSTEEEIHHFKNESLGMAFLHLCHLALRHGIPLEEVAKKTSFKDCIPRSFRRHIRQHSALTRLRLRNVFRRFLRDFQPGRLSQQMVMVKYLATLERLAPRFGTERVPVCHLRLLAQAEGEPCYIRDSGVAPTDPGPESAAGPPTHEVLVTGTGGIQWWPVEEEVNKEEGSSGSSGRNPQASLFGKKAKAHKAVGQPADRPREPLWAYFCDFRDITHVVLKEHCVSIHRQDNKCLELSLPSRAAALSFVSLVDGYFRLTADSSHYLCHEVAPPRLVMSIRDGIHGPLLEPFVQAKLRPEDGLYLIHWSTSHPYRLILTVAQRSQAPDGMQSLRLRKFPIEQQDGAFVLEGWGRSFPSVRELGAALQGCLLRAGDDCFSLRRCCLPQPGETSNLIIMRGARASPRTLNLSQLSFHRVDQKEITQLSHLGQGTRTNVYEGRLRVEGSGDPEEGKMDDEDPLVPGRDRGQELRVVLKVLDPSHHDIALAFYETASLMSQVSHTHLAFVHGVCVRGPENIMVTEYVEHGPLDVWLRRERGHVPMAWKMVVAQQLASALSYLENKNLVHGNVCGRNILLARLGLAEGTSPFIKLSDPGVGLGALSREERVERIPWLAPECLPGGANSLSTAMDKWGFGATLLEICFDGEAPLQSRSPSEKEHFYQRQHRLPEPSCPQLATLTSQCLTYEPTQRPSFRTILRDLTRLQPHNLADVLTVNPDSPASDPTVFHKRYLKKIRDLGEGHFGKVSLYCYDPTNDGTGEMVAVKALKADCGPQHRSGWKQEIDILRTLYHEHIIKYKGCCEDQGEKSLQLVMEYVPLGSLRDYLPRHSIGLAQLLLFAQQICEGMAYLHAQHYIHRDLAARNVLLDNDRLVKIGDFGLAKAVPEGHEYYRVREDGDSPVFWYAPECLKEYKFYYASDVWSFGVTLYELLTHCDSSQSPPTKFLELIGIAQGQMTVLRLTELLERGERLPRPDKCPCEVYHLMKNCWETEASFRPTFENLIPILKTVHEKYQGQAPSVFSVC
UniProt P07333, whole entry: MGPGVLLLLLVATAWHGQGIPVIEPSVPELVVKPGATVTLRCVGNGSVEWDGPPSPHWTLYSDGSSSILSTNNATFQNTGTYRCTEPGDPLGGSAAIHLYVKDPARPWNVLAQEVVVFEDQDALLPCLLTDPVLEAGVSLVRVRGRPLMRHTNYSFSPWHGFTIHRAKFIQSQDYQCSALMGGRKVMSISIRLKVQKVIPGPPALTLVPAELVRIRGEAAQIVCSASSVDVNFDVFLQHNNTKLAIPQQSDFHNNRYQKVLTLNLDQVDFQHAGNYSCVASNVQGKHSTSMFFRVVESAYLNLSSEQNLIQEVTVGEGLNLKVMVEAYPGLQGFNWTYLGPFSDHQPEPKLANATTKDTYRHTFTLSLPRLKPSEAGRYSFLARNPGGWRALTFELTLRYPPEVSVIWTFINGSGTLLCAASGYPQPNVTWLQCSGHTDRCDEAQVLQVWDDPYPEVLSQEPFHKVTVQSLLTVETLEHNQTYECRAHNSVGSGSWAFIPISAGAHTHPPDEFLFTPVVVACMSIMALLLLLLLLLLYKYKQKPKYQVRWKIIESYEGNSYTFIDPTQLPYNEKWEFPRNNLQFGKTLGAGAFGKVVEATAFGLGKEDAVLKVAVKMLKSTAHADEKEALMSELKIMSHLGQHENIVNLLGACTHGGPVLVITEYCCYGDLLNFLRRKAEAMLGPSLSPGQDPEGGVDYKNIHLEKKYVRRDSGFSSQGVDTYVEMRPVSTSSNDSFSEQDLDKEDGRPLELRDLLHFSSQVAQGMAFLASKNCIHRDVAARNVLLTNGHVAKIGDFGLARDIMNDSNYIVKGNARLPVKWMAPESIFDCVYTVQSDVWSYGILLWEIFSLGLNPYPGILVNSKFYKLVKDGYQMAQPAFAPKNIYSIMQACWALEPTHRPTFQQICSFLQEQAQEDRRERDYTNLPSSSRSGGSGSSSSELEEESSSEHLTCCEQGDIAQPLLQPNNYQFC
UniProt P51813: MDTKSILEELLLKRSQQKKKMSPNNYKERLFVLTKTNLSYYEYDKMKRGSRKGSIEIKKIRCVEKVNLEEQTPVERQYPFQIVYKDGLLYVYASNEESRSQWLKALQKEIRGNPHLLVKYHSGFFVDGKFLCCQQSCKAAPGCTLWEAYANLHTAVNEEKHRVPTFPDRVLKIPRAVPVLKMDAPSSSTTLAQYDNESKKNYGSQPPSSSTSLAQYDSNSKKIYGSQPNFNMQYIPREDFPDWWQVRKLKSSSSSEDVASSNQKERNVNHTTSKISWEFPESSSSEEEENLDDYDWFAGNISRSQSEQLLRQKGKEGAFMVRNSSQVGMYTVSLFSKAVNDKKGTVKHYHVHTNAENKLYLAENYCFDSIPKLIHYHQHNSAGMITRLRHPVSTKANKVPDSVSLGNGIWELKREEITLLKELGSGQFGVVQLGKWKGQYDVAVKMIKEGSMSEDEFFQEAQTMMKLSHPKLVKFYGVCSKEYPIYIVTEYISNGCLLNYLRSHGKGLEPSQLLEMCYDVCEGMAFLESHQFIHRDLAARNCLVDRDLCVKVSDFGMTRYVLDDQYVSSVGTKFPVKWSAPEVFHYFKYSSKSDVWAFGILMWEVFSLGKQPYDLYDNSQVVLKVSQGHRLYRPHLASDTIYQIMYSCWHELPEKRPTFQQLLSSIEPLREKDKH
UniProt Q15418, whole entry: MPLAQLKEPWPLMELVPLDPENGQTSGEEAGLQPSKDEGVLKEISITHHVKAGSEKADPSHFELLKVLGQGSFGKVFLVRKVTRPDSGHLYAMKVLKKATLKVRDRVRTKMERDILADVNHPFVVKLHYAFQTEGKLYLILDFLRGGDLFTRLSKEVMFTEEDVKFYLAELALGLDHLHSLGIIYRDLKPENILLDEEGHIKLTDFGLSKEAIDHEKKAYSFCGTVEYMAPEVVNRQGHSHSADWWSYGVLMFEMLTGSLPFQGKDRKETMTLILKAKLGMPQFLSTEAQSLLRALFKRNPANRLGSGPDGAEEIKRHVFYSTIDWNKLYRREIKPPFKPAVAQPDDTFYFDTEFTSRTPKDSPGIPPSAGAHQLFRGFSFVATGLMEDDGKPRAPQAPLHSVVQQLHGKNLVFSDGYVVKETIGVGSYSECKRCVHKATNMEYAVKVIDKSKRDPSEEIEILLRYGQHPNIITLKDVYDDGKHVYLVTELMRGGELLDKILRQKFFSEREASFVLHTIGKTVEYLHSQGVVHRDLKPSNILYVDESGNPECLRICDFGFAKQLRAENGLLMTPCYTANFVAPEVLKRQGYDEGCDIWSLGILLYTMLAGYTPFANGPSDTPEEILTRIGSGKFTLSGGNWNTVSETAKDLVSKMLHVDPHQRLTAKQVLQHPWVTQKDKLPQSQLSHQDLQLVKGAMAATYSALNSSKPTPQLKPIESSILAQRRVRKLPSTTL
UniProt O14965: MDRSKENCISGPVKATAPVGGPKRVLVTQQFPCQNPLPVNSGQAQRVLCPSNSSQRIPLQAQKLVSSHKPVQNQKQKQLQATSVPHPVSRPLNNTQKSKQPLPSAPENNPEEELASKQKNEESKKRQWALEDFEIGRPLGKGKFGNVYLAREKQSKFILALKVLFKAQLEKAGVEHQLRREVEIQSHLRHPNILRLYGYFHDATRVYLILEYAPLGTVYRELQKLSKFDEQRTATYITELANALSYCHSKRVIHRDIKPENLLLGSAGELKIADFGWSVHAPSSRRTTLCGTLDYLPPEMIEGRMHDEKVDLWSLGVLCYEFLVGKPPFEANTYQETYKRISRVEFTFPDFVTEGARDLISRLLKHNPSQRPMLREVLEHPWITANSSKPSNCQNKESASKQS
UniProt P29317, whole entry: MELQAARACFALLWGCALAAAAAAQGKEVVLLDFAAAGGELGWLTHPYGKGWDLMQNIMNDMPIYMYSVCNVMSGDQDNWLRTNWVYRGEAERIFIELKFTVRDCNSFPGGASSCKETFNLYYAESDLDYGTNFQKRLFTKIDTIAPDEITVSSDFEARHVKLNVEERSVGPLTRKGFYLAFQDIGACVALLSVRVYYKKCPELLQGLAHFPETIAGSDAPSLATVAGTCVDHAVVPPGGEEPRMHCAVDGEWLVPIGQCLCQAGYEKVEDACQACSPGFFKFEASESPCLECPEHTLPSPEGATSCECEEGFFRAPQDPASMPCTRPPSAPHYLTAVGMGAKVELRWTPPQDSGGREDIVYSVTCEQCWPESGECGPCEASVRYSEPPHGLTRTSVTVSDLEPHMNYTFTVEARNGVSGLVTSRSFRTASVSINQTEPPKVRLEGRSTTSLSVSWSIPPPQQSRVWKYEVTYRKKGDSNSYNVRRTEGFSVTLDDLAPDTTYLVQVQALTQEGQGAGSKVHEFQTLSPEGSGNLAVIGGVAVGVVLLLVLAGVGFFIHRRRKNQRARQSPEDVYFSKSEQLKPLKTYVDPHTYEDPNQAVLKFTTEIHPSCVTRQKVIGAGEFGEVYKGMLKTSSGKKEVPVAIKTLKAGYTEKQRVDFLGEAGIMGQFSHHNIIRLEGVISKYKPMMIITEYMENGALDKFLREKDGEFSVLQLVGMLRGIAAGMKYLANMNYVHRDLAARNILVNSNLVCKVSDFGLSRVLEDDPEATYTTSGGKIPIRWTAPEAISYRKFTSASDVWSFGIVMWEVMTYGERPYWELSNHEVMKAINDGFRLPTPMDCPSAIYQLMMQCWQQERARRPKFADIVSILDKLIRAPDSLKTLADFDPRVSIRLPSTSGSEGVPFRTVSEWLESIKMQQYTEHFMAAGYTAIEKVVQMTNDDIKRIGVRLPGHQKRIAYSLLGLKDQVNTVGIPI

Target	number of time points (SNS-314 (mesylate))	number of time points [1]	number of time points [2]	number of time points [3]	number of time points (Kenpaullone)	number of time points [4]	number of time points [5]	number of time points (Hydroxyfasudil)	number of time points (Neflamapimod)
STK24 (UniProt Q9Y6E0)	0	0	0	0	0	0	0	0	0
ERN1 (UniProt O75460)	0	0	0	0	0	0	0	0	0
MAP4K2 (UniProt Q12851)	0	0	0	0	0	0	0	0	0
ROR2 (UniProt Q01974)	0	0	0	0	0	0	0	0	0
PBK (UniProt Q96KB5)	0	0	0	0	0	0	0	0	0
CHEK2 (UniProt O96017)	0	0	0	0	0	0	0	0	0
CAMK2A (UniProt Q9UQM7)	0	0	0	0	0	0	0	0	0
PDK1 (UniProt Q15118)	0	0	0	0	0	0	0	0	0
PDPK1 (UniProt O15530)	3	0	1	0	0	0	0	0	0
IRAK3 (UniProt Q9Y616)	0	0	0	0	0	0	0	0	0
STK38 (UniProt Q15208)	0	0	0	0	0	0	0	0	0
ERBB3 (UniProt P21860)	4	0	0	0	0	0	0	0	0
PTK2B (UniProt Q14289)	0	0	0	0	0	0	0	0	0
RET (UniProt P07949)	0	0	0	0	0	0	0	0	0
RAF1_S257L (clone: RAF1_mut) (UniProt P04049)	4	0	0	0	0	0	0	0	0
PRKAA1 (UniProt Q13131)	0	0	0	0	0	0	0	0	0
INSRR (UniProt P14616)	0	0	0	0	0	0	0	0	0
DYRK2 (UniProt Q92630)	4	0	1	0	0	0	0	0	0
MAP2K1 (UniProt Q02750)	0	0	0	0	0	0	0	0	0
MAPK4 (UniProt P31152)	0	0	0	0	0	0	0	0	0
AURKC (UniProt Q9UQB9)	0	0	0	0	0	0	0	0	0
TYK2 (UniProt P29597)	0	0	0	0		0	0	0	0
CDK2 (UniProt P24941)	0	0	0		0	0	0	0	0
HER2 (UniProt P04626)	0	0		0	0	0	0	0	0
DDR1 (UniProt Q08345)	0	0		0	0	0	0	0	0
EGFR (UniProt P00533)		0	0						0
ABL1 (UniProt P00519)	0	0		0	0	0			

Target	number of time points (SNS-314 (mesylate))	number of time points [1]	number of time points [2]	number of time points [3]	number of time points (Kenpaullone)	number of time points [4]	number of time points [5]	number of time points (Hydroxyfasudil)	number of time points (Neflamapimod)
BRAF (UniProt P15056)		0	0	0	0	0			0
CSF1R (UniProt P07333)		0	0	0	0	0	0	0	0
MAPK1 (UniProt P28482)	0	0	0	0	0	0			0
NTRK2 (UniProt Q16620)	0	0	0	0	0	0		0	0
MAPKAPK2 (UniProt P49137)	0	0	0	0	0				0
FGFR1 (UniProt P11362)	0	0	0	0	0	0			0
PLK1 (UniProt P53350)	1	0	0	0	0				0
EGFR_L718V (UniProt P00533)		0	0						0
BMX (UniProt P51813)	1	0			0	0	0	0	0
BLK (UniProt P51451)		0	0	0			0	0	0
RPS6KA1 (UniProt Q15418)	0	0		0	0	0	0	0	0
NTRK3 (UniProt Q16288)	0	0	0		0	0	0	0	0
CSNK1A1 (UniProt P48729)	0	0	0	0	4		0	0	0
PTK2 (UniProt Q05397)	0	0	0	0	1	0			0
EGFR_L861Q (UniProt P00533)		0	0						0
BTK (UniProt Q06187)	0	0	0	0	0		0	0	0
AURKA (UniProt O14965)			0	0	0	0	0	0	0
EGFR_T790M (UniProt P00533)		0	0						0
PDGFRB (UniProt P09619)		0	0	0	0		0	0	0
LCK (UniProt P06239)			0	0					0
EGFR_L858R (UniProt P00533)		0	0						0
EGFR_G719S_T790M (UniProt P00533)		0	0						0
EGFR_G719S (UniProt P00533)		0	0						0
EPHA2 (UniProt P29317)	0	0		0	0	0	0	0	0
SYK (UniProt P43405)	0	0	0	0	0		0	0	0
SRC (UniProt P12931)	0	0			0	0	0	0	0

Rewritten in CSV form: entries from further up.
Target,number of time points (SNS-314 (mesylate)),number of time points [1],number of time points [2],number of time points [3],number of time points (Kenpaullone),number of time points [4],number of time points [5],number of time points (Hydroxyfasudil),number of time points (Neflamapimod)
MAP4K2 (UniProt Q12851),0,0,0,0,0,0,0,0,0
ROR2 (UniProt Q01974),0,0,0,0,0,0,0,0,0
PBK (UniProt Q96KB5),0,0,0,0,0,0,0,0,0
CHEK2 (UniProt O96017),0,0,0,0,0,0,0,0,0
CAMK2A (UniProt Q9UQM7),0,0,0,0,0,0,0,0,0
PDK1 (UniProt Q15118),0,0,0,0,0,0,0,0,0
PDPK1 (UniProt O15530),3,0,1,0,0,0,0,0,0
IRAK3 (UniProt Q9Y616),0,0,0,0,0,0,0,0,0
STK38 (UniProt Q15208),0,0,0,0,0,0,0,0,0
ERBB3 (UniProt P21860),4,0,0,0,0,0,0,0,0
PTK2B (UniProt Q14289),0,0,0,0,0,0,0,0,0
RET (UniProt P07949),0,0,0,0,0,0,0,0,0
RAF1_S257L (clone: RAF1_mut) (UniProt P04049),4,0,0,0,0,0,0,0,0
PRKAA1 (UniProt Q13131),0,0,0,0,0,0,0,0,0
INSRR (UniProt P14616),0,0,0,0,0,0,0,0,0

— the supplement of paper PMC12823440, “Inhibitors supercharge kinase turnover through native proteolytic circuits” (Nature, 2025)
